Experimental data from the supplement of paper PMC12024529.
The list shows a part of the results. Plates or batches differ in their baseline, so values are only roughly comparable.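 The cells are HEK293 lines stably expressing B-domain-deleted factor VIII fused to Gaussia luciferase, either wild type or a misfolding-prone missense mutant. Each score is mean luminescence from triplicate wells minus the DMSO mean, divided by the DMSO standard deviation; a score of 2 or more counts as a hit, and low scores may reflect lower secretion or poorer cell viability.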

System: HEK293 WT BDD-FVIII-Gluc
Experiment: secreted FVIII-Gluc luciferase Z-score vs DMSO control; higher = more FVIII-Gluc secretion
Conditions: 5 µM; 24 h

Secreted FVIII-Gluc luciferase Z-score, inactive:
CC(C)OC(=O)C(C)(C)Oc1ccc(C(=O)c2ccc(Cl)cc2)cc1 [Fenofibrate (Tricor, Trilipix)] -3.25
Nc1c(CC(=O)O)cccc1C(=O)c1ccccc1 [Amfenac Sodium (monohydrate)] 1.11
CC(=O)S[C@@H]1CC2=CC(=O)CC[C@]2(C)[C@H]2CC[C@@]3(C)[C@@H](CC[C@@]34CCC(=O)O4)[C@H]12 [Spironolactone] -1.6
CC(=O)O[C@]1(C(C)=O)CC[C@H]2[C@@H]3CCC4=CC(=O)CCC4=C3[C@@H](c3ccc(N(C)C)cc3)C[C@@]21C [Ulipristal] -1.59
CC1CNc2c(cccc2S(=O)(=O)N[C@@H](CCCNC(=N)N)C(=O)N2CC[C@@H](C)C[C@@H]2C(=O)O)C1 (stereo partly specified) [Argatroban] -1.29
CN1CCC(=C2c3ccccc3CCc3sccc32)CC1 [Pizotifen malate] -4.63
NC(=O)N/N=C/c1ccc([N+](=O)[O-])o1 [Nitrofurazone (Nitrofural)] -2.32
N#CC[C@H](C1CCCC1)n1cc(-c2ncnc3[nH]ccc23)cn1 1.69
CCOC(=O)N1CCC(=C2c3ccc(Cl)cc3CCc3cccnc32)CC1 [Loratadine] -6.87
CN(C)CCCN1c2ccccc2Sc2ccc(Cl)cc21 [Chlorpromazine (Sonazine)] 1.04
CNC1CCCN(c2c(F)cc3c(=O)c(C(=O)O)cn(C4CC4)c3c2OC)C1 (stereo unspecified) [Balofloxacin] -2.52
